# From PMC3874003
# Amino acid sequences for entries named in this document (tags omitted). A change or cut given only in a name is not applied to a line headed by its entry.
# UniProt O32266: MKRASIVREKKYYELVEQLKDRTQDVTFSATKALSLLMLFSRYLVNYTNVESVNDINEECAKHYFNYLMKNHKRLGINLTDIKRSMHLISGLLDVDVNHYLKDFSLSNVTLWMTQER
# The exact form of at least one protein or probe is not confirmed. For some of these results: A negative result means that nothing was seen under these conditions. For some of these results: Where a protein sequence is shown, tags need not be part of it. For some of these results: A weaker result is weaker than the reference pair of the same experiment. For some of these results: At least one verdict was read from the data and is not stated in words by the source.
# Key:
# [1] = system: DegU~P (DegU phosphorylated by DegS + ATP) + SwrA; assay: EMSA; conditions: 50 mM Tris-HCl pH 7.6, 10 mM MgCl2, 1 mM DTT, 25 mM KCl, 0.1 mg/ml BSA, 0.1 mM ATP, 0.1 ug sonicated salmon sperm DNA, recombinant protein, probe letters rebuilt from the primers and the genome
# [2] = biological target: DegU~P (DegU phosphorylated by DegS + ATP) (Bacillus subtilis) (UniProt P13800); assay: EMSA; conditions: 50 mM Tris-HCl pH 7.6, 10 mM MgCl2, 1 mM DTT, 25 mM KCl, 0.1 mg/ml BSA, 0.1 mM ATP, 0.1 ug sonicated salmon sperm DNA, recombinant protein, protein details: pET16b (His-tag implied), probe letters rebuilt from the primers and the genome
# [3] = biological target: T1, GST-SwrA (Bacillus subtilis) (UniProt O32266); assay: EMSA; conditions: GST-SwrA alone (not shown); 50 mM Tris-HCl pH 7.6, 10 mM MgCl2, 1 mM DTT, 25 mM KCl, 0.1 mg/ml BSA, 0.1 mM ATP, 0.1 ug sonicated salmon sperm DNA; recombinant protein; protein details: GST (N-terminal, pGEX-6P); label: 5'-32P; probe letters rebuilt from the primers and the genome
# T1 sequence (looked up, limits assumed): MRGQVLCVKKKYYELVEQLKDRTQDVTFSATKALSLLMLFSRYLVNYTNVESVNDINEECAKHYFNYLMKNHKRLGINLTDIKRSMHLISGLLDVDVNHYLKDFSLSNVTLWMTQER
# [4] = system: DegU~P (DegU phosphorylated by DegS + ATP) + GST-SwrA; assay: EMSA; conditions: 0.1 uM DegU, 0.1 uM DegS, 1.5 uM GST-SwrA, ATP, slower SS* complex; 50 mM Tris-HCl pH 7.6, 10 mM MgCl2, 1 mM DTT, 25 mM KCl, 0.1 mg/ml BSA, 0.1 mM ATP, 0.1 ug sonicated salmon sperm DNA; recombinant protein; protein details: pET16b (His-tag implied),GST (N-terminal, pGEX-6P); label: 5'-32P; probe letters rebuilt from the primers and the genome
# [5] = system: DegU~P (DegU phosphorylated by DegS + ATP) + SwrA; assay: competition with a labelled probe; conditions: 20 ng unlabeled DNA, did not compete (SS complex); 50 mM Tris-HCl pH 7.6, 10 mM MgCl2, 1 mM DTT, 25 mM KCl, 0.1 mg/ml BSA, 0.1 mM ATP, 0.1 ug sonicated salmon sperm DNA; recombinant protein; probe letters rebuilt from the primers and the genome
# [6] = biological target: DegU~P (DegU phosphorylated by DegS + ATP) (Bacillus subtilis) (UniProt P13800); assay: competition with a labelled probe; conditions: 20 ng unlabeled DNA, did not compete (S complex); 50 mM Tris-HCl pH 7.6, 10 mM MgCl2, 1 mM DTT, 25 mM KCl, 0.1 mg/ml BSA, 0.1 mM ATP, 0.1 ug sonicated salmon sperm DNA; recombinant protein; protein details: pET16b (His-tag implied); probe letters rebuilt from the primers and the genome
# [7] = biological target: DegU~P (phosphorylated by DegS200(Hy)) (Bacillus subtilis) (UniProt P13800); assay: EMSA; conditions: phosphorylated by DegS200(Hy), ATP, same as wild-type DegS, FAM or 32P probe not stated for Fig 4; 50 mM Tris-HCl pH 7.6, 10 mM MgCl2, 1 mM DTT, 25 mM KCl, 0.1 mg/ml BSA, 0.1 mM ATP, 0.1 ug sonicated salmon sperm DNA; recombinant protein; protein details: pET16b (His-tag implied); label: 6-FAM; probe letters rebuilt from the primers and the genome
# [8] = system: DegU~P (phosphorylated by DegS200(Hy)) + SwrA; assay: EMSA; conditions: phosphorylated by DegS200(Hy), ATP, SS complex, FAM or 32P probe not stated for Fig 4; 50 mM Tris-HCl pH 7.6, 10 mM MgCl2, 1 mM DTT, 25 mM KCl, 0.1 mg/ml BSA, 0.1 mM ATP, 0.1 ug sonicated salmon sperm DNA; recombinant protein; label: 6-FAM; probe letters rebuilt from the primers and the genome
# SwrA (Bacillus subtilis) = biological target: T2, SwrA (Bacillus subtilis) (UniProt O32266); assay: EMSA; conditions: 1 uM SwrA, alone or with DegS; 50 mM Tris-HCl pH 7.6, 10 mM MgCl2, 1 mM DTT, 25 mM KCl, 0.1 mg/ml BSA, 0.1 mM ATP, 0.1 ug sonicated salmon sperm DNA; recombinant protein; protein details: from pGEX-6P GST fusion, untagged; label: 6-FAM; probe letters rebuilt from the primers and the genome
# T2 sequence (looked up, limits assumed): T1 sequence (looked up, limits assumed)
# [9] = biological target: T3, DegU (unphosphorylated) (Bacillus subtilis) (UniProt P13800); assay: EMSA; conditions: lower affinity than DegU~P, ATP required for the interaction (data not shown); 50 mM Tris-HCl pH 7.6, 10 mM MgCl2, 1 mM DTT, 25 mM KCl, 0.1 mg/ml BSA, 0.1 mM ATP, 0.1 ug sonicated salmon sperm DNA; recombinant protein; protein details: pET16b (His-tag implied); label: 6-FAM; probe letters rebuilt from the primers and the genome
# T3 sequence (looked up, limits assumed): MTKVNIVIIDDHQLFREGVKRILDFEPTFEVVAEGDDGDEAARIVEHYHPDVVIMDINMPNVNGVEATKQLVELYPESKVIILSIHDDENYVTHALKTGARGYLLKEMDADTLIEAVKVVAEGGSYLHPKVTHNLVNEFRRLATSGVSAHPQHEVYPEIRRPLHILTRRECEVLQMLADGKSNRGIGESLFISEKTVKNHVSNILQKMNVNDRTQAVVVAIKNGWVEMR
sequence,measurement,setting,value
"ACCCTCAATATCCTTGTCGAGAATTGTAAAACTATATGCTTATTGTAAGAAATAACAGGCATAAAGTCTATGAAGTTCGTGTAAAAAAATGTCCTCACAATTATCTATTTTGCAACTAGGTATAAAGTCCTAGATTGTTAGAACTACATTTCTCG (double strand) [K probe, 156 bp]",binding result,"[1]; with DegS and ATP, SS complex, label: 6-FAM (primer 8601)",binds
same,binding result,"[2]; with DegS and ATP, S complex, label: 6-FAM (primer 8601)",binds
"AGTTCTAACAATCTAGGACTTTATACCTAGTTGCAAAATAGATAATTGTGAGGACATTTTTTTACACGAACTTCATAGACTTTATGCCTGTTATTTCTTACAATAAGCATATAGTTTTACAATTCTCGACAAGGATATTGAGGGTGAAAAAAACTGAAATGGAGGTAAGTGGATTTGAGCTTATTTTCTGGAACGATACAAAATCTTGAAAATGCCTTGAGCAGAGCGGATATTAAGCAAAAAGTCATAACTAATAATATCGCCAATATAGATACACCGAACTATAACCATGGGC (double strand) [PA(fla/che) probe, 32P, 285 bp]",binding result,[3],no binding
same,binding result,"[1]; 0.1 uM DegU, 0.1 uM DegS, 1.5 uM SwrA, ATP, SwrA increases DNA binding at limiting DegU and DegS (Fig S2), label: 5'-32P",binds
same,binding result,[4],binds
GGAGGATCCCGCTTCCTTCAGGTCGAACCCTTTACCGTTATCTTTTATCATTAAAATCACAAAATCCTTTGTGATCTCAACTTTGACTGTAATTTCTTCAGATTCAGAATGCTTTAGCGCATTAGACACAGCTTCCTGTGCGAGCCTGAAGAGCGCAACCTCAAACTGAGGCGCTAGCCTCTGATCCTCTGTTTCTCCAATGCACTGAAAATGTATTTTGACCTTCCCGTTATATTCCTCGGTTGTATATAGATATTTTCTTAAAGTTGGAATCAGGCC (double strand) [non-specific competitor (internal degS fragment)],binding result,[5],no binding
same,binding result,[6],no binding
"GCCCATGGTTATAGTTCGGTGTATCTATATTGGCGATATTATTAGTTATGACTTTTTGCTTAATATCCGCTCTGCTCAAGGCATTTTCAAGATTTTGTATCGTTCCAGAAAATAAGCTCAAATCCACTTACCTCCATTTCAGTTTTTTTCACCCTCAATATCCTTGTCGAGAATTGTAAAACTATATGCTTATTGTAAGAAATAACAGGCATAAAGTCTATGAAGTTCGTGTAAAAAAATGTCCTCACAATTATCTATTTTGCAACTAGGTATAAAGTCCTAGATTGTTAGAACTACATTTCTCG (double strand) [PA(fla/che) probe, FAM, 299 bp]",binding result,[7],binds
same,binding result,"[1]; 0.35 uM DegU, 0.4 uM DegS, 1 uM SwrA, ATP, supershifted SS complex, label: 6-FAM",binds
same,binding result,"[2]; 0.35 uM DegU, 0.4 uM DegS, 10 mM Mg2+, label: 6-FAM",binds
same,binding result,[8],binds
same,binding result,SwrA (Bacillus subtilis),no binding
same,binding result,[9],binds more weakly
